Data as given in patent US7794956.
No constants are given. Whether binding was seen depends on the method and setting. In cells and extracts the contact can be indirect. Some entries that bind do so weakly or less than the wild type.

The chains behind the UniProt entries cited, without tags or fusion partners. Residues count along the entry.
UniProt P15208, residues 753-1372: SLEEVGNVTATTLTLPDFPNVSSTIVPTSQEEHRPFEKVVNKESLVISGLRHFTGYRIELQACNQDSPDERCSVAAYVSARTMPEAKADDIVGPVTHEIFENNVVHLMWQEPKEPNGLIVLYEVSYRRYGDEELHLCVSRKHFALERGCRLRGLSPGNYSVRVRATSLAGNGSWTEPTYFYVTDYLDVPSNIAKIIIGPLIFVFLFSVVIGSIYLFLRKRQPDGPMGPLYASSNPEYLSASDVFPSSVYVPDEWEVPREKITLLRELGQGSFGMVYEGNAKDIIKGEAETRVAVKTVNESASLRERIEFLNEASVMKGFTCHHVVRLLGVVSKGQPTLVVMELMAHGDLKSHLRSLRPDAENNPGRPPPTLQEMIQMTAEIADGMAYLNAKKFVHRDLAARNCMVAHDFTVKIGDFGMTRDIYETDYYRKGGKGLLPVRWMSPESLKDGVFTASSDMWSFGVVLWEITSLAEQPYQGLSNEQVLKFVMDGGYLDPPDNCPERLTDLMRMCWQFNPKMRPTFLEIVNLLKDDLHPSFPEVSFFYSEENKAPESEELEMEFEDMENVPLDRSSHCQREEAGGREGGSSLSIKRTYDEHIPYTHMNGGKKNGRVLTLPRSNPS
UniProt P35569: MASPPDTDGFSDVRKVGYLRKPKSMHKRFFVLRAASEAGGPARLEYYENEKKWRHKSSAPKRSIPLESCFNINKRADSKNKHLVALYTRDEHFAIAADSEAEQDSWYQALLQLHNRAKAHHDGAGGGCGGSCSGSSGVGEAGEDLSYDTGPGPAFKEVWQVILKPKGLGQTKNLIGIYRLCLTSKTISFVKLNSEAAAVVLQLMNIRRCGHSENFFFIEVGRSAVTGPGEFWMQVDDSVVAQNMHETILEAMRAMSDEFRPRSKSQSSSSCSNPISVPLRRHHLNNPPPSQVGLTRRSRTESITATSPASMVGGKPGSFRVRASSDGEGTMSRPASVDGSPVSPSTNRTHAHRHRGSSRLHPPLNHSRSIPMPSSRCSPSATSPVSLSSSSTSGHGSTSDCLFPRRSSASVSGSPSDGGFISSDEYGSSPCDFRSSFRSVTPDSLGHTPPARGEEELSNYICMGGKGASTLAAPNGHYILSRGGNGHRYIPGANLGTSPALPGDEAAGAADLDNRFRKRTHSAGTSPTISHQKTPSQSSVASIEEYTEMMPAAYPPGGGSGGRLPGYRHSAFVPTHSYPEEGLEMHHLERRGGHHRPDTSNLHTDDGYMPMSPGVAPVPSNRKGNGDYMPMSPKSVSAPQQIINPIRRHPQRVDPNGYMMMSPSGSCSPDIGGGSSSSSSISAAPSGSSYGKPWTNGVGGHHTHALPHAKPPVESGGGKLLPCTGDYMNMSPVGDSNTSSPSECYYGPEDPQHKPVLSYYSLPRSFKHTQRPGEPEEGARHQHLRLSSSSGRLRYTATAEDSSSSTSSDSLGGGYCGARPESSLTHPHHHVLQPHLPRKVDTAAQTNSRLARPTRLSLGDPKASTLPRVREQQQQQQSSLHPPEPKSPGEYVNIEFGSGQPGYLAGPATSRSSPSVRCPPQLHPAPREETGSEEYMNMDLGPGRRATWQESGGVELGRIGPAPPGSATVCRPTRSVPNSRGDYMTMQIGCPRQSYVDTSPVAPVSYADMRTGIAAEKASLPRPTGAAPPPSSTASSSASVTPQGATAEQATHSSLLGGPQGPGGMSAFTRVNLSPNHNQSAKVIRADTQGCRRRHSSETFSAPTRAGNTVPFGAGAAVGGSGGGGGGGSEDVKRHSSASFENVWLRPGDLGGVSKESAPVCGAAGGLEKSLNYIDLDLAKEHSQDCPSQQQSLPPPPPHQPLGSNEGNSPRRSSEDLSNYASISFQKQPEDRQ
UniProt P26450, residues 2-724: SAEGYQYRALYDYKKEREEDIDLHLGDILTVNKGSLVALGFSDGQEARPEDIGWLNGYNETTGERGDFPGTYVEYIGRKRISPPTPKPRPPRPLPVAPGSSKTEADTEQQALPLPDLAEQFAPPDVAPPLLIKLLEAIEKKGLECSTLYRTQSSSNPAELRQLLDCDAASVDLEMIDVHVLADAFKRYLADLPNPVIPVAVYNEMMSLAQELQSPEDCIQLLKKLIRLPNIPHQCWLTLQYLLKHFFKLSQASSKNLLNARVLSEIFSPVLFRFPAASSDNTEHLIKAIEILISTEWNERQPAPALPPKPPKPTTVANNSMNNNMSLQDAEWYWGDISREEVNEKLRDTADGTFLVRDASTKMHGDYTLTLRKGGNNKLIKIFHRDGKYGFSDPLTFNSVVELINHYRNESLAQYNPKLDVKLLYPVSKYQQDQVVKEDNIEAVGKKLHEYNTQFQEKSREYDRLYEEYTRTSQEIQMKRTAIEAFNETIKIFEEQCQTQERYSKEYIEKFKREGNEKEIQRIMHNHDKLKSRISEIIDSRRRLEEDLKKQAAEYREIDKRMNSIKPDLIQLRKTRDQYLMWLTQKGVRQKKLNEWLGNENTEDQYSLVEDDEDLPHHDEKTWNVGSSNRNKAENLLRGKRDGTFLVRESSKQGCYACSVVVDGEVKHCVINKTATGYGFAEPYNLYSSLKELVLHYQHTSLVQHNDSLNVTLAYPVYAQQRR

Legend:
[1] = molecular target: beta subunit of insulin receptor (IRβ) (mouse) (UniProt P15208); assay: co-immunoprecipitation from liver lysates of control and LGKO mice (FIG. 4d)
IRS-1 (mouse) [2] = molecular target: IRS-1 (mouse) (UniProt P35569); assay: co-immunoprecipitation from mouse liver lysates, blots quantified
IRS-2 (mouse) [3] = molecular target: T1, IRS-2 (mouse) (UniProt P81122); assay: as above
T1 sequence (looked up): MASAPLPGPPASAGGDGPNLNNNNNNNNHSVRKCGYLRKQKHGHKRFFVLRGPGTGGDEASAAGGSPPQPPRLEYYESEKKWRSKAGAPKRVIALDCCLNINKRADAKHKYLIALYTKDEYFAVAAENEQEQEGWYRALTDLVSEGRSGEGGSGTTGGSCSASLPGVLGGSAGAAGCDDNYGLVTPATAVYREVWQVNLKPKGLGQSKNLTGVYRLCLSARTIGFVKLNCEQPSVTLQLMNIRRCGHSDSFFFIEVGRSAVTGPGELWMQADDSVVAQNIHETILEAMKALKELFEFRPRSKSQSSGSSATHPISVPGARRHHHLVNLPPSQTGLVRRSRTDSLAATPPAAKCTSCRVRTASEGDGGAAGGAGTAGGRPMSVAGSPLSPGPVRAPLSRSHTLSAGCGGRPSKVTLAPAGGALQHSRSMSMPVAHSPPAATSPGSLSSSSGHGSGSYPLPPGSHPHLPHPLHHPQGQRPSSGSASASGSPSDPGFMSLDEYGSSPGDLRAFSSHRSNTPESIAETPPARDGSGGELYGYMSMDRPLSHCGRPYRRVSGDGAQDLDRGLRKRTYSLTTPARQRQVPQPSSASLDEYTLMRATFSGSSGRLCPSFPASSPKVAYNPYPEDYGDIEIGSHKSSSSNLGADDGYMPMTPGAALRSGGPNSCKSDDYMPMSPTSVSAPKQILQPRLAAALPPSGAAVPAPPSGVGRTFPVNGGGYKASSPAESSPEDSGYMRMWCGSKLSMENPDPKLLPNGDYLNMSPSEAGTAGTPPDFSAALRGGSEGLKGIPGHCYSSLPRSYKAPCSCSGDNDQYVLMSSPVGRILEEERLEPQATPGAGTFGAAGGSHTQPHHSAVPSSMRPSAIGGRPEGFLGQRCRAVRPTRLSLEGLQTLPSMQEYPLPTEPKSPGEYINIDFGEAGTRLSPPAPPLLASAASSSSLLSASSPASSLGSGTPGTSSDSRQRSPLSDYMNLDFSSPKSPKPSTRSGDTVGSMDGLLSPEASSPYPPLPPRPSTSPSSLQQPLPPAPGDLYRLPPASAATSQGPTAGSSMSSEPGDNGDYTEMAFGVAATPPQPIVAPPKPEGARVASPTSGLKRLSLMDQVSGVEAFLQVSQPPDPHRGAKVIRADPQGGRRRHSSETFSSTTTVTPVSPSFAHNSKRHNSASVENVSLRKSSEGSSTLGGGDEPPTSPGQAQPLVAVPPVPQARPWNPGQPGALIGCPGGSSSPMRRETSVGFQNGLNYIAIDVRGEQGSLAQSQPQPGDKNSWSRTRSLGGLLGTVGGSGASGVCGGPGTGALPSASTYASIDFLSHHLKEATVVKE

IRS-1 (mouse) [4] = molecular target: IRS-1 (mouse) (UniProt P35569); assay: co-immunoprecipitation: IRS-1 immunoprecipitated from mouse liver lysates, immunoblot for p85α
IRS-2 (mouse) [5] = molecular target: T1, IRS-2 (mouse); assay: co-immunoprecipitation: IRS-2 immunoprecipitated from mouse liver lysates, immunoblot for p85α

## IRS-1 (from UniProt P35569 1-1233)
[1]
  binding: binds

## p85.alpha. subunit of PI3-kinase (from UniProt P26450 2-724)
IRS-1 (mouse) [2]
  binding: binds
IRS-2 (mouse) [3]
  binding: binds
IRS-1 (mouse) [4]
  binding: binds
IRS-2 (mouse) [5]
  binding: binds

B1: IRS-2 (protein, mouse, UniProt P81122 1-1321, looked up)
chain: MASAPLPGPPASAGGDGPNLNNNNNNNNHSVRKCGYLRKQKHGHKRFFVLRGPGTGGDEASAAGGSPPQPPRLEYYESEKKWRSKAGAPKRVIALDCCLNINKRADAKHKYLIALYTKDEYFAVAAENEQEQEGWYRALTDLVSEGRSGEGGSGTTGGSCSASLPGVLGGSAGAAGCDDNYGLVTPATAVYREVWQVNLKPKGLGQSKNLTGVYRLCLSARTIGFVKLNCEQPSVTLQLMNIRRCGHSDSFFFIEVGRSAVTGPGELWMQADDSVVAQNIHETILEAMKALKELFEFRPRSKSQSSGSSATHPISVPGARRHHHLVNLPPSQTGLVRRSRTDSLAATPPAAKCTSCRVRTASEGDGGAAGGAGTAGGRPMSVAGSPLSPGPVRAPLSRSHTLSAGCGGRPSKVTLAPAGGALQHSRSMSMPVAHSPPAATSPGSLSSSSGHGSGSYPLPPGSHPHLPHPLHHPQGQRPSSGSASASGSPSDPGFMSLDEYGSSPGDLRAFSSHRSNTPESIAETPPARDGSGGELYGYMSMDRPLSHCGRPYRRVSGDGAQDLDRGLRKRTYSLTTPARQRQVPQPSSASLDEYTLMRATFSGSSGRLCPSFPASSPKVAYNPYPEDYGDIEIGSHKSSSSNLGADDGYMPMTPGAALRSGGPNSCKSDDYMPMSPTSVSAPKQILQPRLAAALPPSGAAVPAPPSGVGRTFPVNGGGYKASSPAESSPEDSGYMRMWCGSKLSMENPDPKLLPNGDYLNMSPSEAGTAGTPPDFSAALRGGSEGLKGIPGHCYSSLPRSYKAPCSCSGDNDQYVLMSSPVGRILEEERLEPQATPGAGTFGAAGGSHTQPHHSAVPSSMRPSAIGGRPEGFLGQRCRAVRPTRLSLEGLQTLPSMQEYPLPTEPKSPGEYINIDFGEAGTRLSPPAPPLLASAASSSSLLSASSPASSLGSGTPGTSSDSRQRSPLSDYMNLDFSSPKSPKPSTRSGDTVGSMDGLLSPEASSPYPPLPPRPSTSPSSLQQPLPPAPGDLYRLPPASAATSQGPTAGSSMSSEPGDNGDYTEMAFGVAATPPQPIVAPPKPEGARVASPTSGLKRLSLMDQVSGVEAFLQVSQPPDPHRGAKVIRADPQGGRRRHSSETFSSTTTVTPVSPSFAHNSKRHNSASVENVSLRKSSEGSSTLGGGDEPPTSPGQAQPLVAVPPVPQARPWNPGQPGALIGCPGGSSSPMRRETSVGFQNGLNYIAIDVRGEQGSLAQSQPQPGDKNSWSRTRSLGGLLGTVGGSGASGVCGGPGTGALPSASTYASIDFLSHHLKEATVVKE
[1]
  binding: binds
